Measured values from the supplement of paper PMC7877785.
± gives the uncertainty stated by the source. Many entries were measured with a wide error.

Experiment: self-splicing fitness, log relative to wild type (ln ratio); higher = more splicing; Tetrahymena group I intron in knt gene, E. coli kanamycin selection, DiMSum; sequences stand for … in CUCUCU…GGAGGGAAAAGUUAUCAGGCAUGCACCUGGUAGCUAGUCUUUAAACCAAUAGAUUGCAUCGGUUUAAAAGGCAAGACCGUCAAAUUGCGGGAAAGGGGUCAACAGCCGUUCAGUACCAAGUCUCAGGGGAAACUUUGAGAUGGCCUUGCAAAGGGUAUGGUAAUAAGCUGACGGACAUGGUCCUAACCACGCAGCCAAGUCCUAAGUCAACAGAUCUUCUGUUGAUAUGGAUGCAGUUCACAGACUAAAUGUCGGUCGGGGAAGAUGUAUUCUUCUCAUAAGAUAUAGUCGGACCUCUCCUUAAUGGGAGCUAGCGGAUGAAGUGAUGCAACACUGGAGCCGCUGGGAACUAAUUUGUAUGCGAAAGUAUAUUGAUUAGUUUUGGAGUACUCGUGGUCG
Outline: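 Six replicate transformations of E. coli BL21(DE3) with a pET-22b(+) library were grown overnight at 37°C or 30°C. The library randomised all eight P1ex-region intron nucleotides, the intron lying in the knt kanamycin-resistance gene, and plates were LB agar with or without 25 μg/mL kanamycin plus 100 μg/mL carbenicillin, 50 μM IPTG and 0.2% rhamnose. Pooled colonies were amplicon-sequenced on an Illumina HiSeq 2500, and fitness is the DiMSum error-weighted combination of wild-type-normalised replicate fold changes, kanamycin versus none.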

Sequence | self-splicing fitness (ln) (30 °C) | self-splicing fitness (ln) (37 °C)
GAUAAGCAAUAUUACGAUCC | -1.63 ± 0.61 | -2.43 ± 0.79
GGCGAGCAAUAUUACGCUUG | -4.49 ± 1 | 
AAUGAGCAAUAUUACGAGAG | -4.23 ± 0.75 | 
UUAUAGCAAUAUUACGUGAU | -4.11 ± 0.6 | -1.75 ± 0.81
UCCUAGCAAUAUUACGAAAA |  | -2.45 ± 0.62
UGGAAGCAAUAUUACGUCAC | -4.71 ± 0.72 | 
CAGGAGCAAUAUUACGGGCC | -3.76 ± 0.42 | -4 ± 1
CCCAAGCAAUAUUACGUACC | -5.23 ± 0.58 | -1.82 ± 0.28
ACAGAGCAAUAUUACGUUUC | -4.36 ± 0.61 | 
UCGCAGCAAUAUUACGGGUC | -4.91 ± 0.59 | 
UAAGAGCAAUAUUACGAAAA | -2.39 ± 0.64 | 
CGCGAGCAAUAUUACGAGAC | -0.224 ± 0.53 | -2.4 ± 0.57
CUCGAGCAAUAUUACGAACG | -4.16 ± 1 | -1.38 ± 0.63
UUUUAGCAAUAUUACGUGCU | -2.43 ± 0.47 | -0.459 ± 0.22
CGGGAGCAAUAUUACGCACC |  | -1.29 ± 1.2
CUCUAGCAAUAUUACGACUU | -4.08 ± 0.74 | 
GGUAAGCAAUAUUACGCACU | -3.21 ± 1.1 | 
GUGGAGCAAUAUUACGCGCG | -1.79 ± 0.25 | -2.11 ± 0.31
AAGGAGCAAUAUUACGACCA | -4.78 ± 1 | 
CUUGAGCAAUAUUACGCCAG | -1.32 ± 0.71 | -1.3 ± 0.56
CUGAAGCAAUAUUACGUCCC |  | -1.37 ± 1.2
UGAGAGCAAUAUUACGCGAC | -0.167 ± 1.2 | -2.2 ± 1.1
GGCUAGCAAUAUUACGGCCC | -3.95 ± 1 | -2.4 ± 0.77

Sequence | self-splicing fitness (ln) (30 °C) | self-splicing fitness (ln) (37 °C)
UCAGAGCAAUAUUACGAAAC | -3.95 ± 0.72 | 
CCGCAGCAAUAUUACGUGCU |  | -3.49 ± 0.52
ACUCAGCAAUAUUACGGAGU | -2.78 ± 0.11 | -2.7 ± 0.18
UCAGAGCAAUAUUACGGAUA |  | -2.57 ± 0.54
UCAGAGCAAUAUUACGAGAC | -1.52 ± 0.61 | -2.4 ± 0.77
GGUCAGCAAUAUUACGGACA | -0.754 ± 0.19 | -0.179 ± 0.17
UAAUAGCAAUAUUACGAGAG | -3.51 ± 0.52 | 
AACGAGCAAUAUUACGCCAC |  | -2.39 ± 0.77
CUAAAGCAAUAUUACGUCAU | -4.85 ± 0.31 | -2.78 ± 0.23
UAUGAGCAAUAUUACGAAGC |  | -1.13 ± 1.2
GGGAAGCAAUAUUACGAAGA | -2.81 ± 0.68 | -0.943 ± 0.23
UGAGAGCAAUAUUACGGGAU | -4.3 ± 0.59 | 
UGCGAGCAAUAUUACGUUGG | -3.52 ± 0.52 | 
AUACAGCAAUAUUACGCUAC |  | -3.7 ± 0.51
UCUCAGCAAUAUUACGCAUG | -2.79 ± 1.2 | 
CUGAAGCAAUAUUACGAAAC |  | -3.16 ± 0.53
CAUGAGCAAUAUUACGUACC | -2.74 ± 0.54 | -1.66 ± 0.73
CAGUAGCAAUAUUACGAAUG | -1.36 ± 0.1 | -0.492 ± 0.11
UGUUAGCAAUAUUACGACUA | 0.407 ± 0.22 | -0.164 ± 0.19
UCCGAGCAAUAUUACGGGAU |  | -2.77 ± 1.1
UCGCAGCAAUAUUACGCAAG | -3.01 ± 0.17 | -1.69 ± 0.25
GGAGAGCAAUAUUACGCUAG | -1.3 ± 0.36 | -0.901 ± 0.42
GACCAGCAAUAUUACGGUUC | -5.29 ± 0.25 | -2.73 ± 0.14

A few values from the list:
self-splicing fitness (ln) (37 °C) with AACGAGCAAUAUUACGCCAC reads -2.39 ± 0.77
self-splicing fitness (ln) (37 °C) with CUAAAGCAAUAUUACGUCAU reads -2.78 ± 0.23
self-splicing fitness (ln) (30 °C) with GGGAAGCAAUAUUACGAAGA reads -2.81 ± 0.68
